Reference: patent US8415359B2, “Phenylpyrrole derivative” (Daiichi Sankyo Company, Limited, priority 2008, dated 2013)
For at least one compound, name, drawing or mass did not settle the structure.

Target: T1, human pancreatic GK (human glucokinase variant 1, GST-fused protein) (Homo sapiens, UniProt P35557)
T1 construct: made in house; host or cells: Escherichia coli (such as BL21 or JM109)
T1 sequence (P35557 1-465): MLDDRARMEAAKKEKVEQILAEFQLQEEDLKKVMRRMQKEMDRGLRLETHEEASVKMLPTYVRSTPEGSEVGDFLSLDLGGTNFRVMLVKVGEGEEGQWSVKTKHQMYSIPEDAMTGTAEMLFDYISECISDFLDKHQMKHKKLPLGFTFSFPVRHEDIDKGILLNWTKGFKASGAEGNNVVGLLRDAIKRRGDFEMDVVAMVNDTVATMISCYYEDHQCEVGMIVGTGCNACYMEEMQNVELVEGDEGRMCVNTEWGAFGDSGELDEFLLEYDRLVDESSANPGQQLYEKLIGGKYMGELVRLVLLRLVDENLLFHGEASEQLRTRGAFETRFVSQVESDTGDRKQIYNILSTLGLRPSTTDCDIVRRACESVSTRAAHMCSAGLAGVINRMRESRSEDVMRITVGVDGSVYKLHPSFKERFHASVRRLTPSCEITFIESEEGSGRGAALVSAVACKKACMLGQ
Test: GK activity test (GK activation rate)
Type: biochemical
Conditions: test compound 1 μM; glucose 5 mM; 30 min at room temperature; absorbance at 340 nm with test compound / without test compound
Description: cDNA encoding human pancreatic GK polypeptide (GenBank Accession No. NM_000162, human glucokinase variant 1) was cloned from a human cDNA library by polymerase chain reaction (PCR), and introduced into a glutathione S-transferase (GST)-fused protein expression vector (GEX4T, GE Healthcare Bioscience). The vector was introduced into Escherichia coli (such as BL21 or JM109, Invitrogen), and the transformed E. coli was cultured overnight at 37° C. followed by recovery of the cells. After freezing and thawing the recovered cells, the cells were suspended in phosphate buffer containing Triton-X at a final concentration of 1% followed by disrupting the cells with an ultrasonic homogenizer. […]
GK activity was measured using the GK purified in (1) above. […] Following completion of the reaction, absorbance at a wavelength of 340 nm was measured using SpectraMax Plus (Molecular Probe). Furthermore, unreacted (when glucose was not added) absorbance was used for the background.
GK activation rates were indicated with values represented by the following numerical formula: (absorbance after reacting for 30 minutes when test compound added)/(absorbance after reacting for 30 minutes when test compound not added).

## COC[C@H](C)Oc1cc(Oc2ccc(C(=O)N3CCC3)cc2F)cc(-c2ccc(C3=NC[C@H](C)O3)[nH]2)c1 [Example 69, (5S)-2-(5-{3-[4-(Azetidin-1-ylcarbonyl)-2-fluorophenoxy]-5-[(1S)-2-methoxy-1-methylethoxy]phenyl}-1H-pyrrol-2-yl)-5-methyl-4,5-dihydro-1,3-oxazole]
  GK Activation Rate: 2.2
